# Source: paper PMC11520951
# No constants are given. Whether binding was seen depends on the method and setting. Some entries that bind do so weakly or less than the wild type.
# B1: synthetic polypeptide XtCRY6DI-UIM_WT (peptide)
# peptide: ADLETLGYETDLELAIALSLQEHNQLTD
# Target: polyubiquitin (K48Ub2-8, UBPBio, D1500) (UniProt P0CG48)
# Test: pull-down; competition: 2.2 ug polyubiquitin pre-incubated with 1 ug synthetic polypeptide for 1 h at 4°C before the incubation with the GST-fusion protein; otherwise as the GST pull-down; both purified
binder,measurement,value
B1,binding,binds
